# Screening data, single-dose tests

The chains behind the UniProt entries cited, without tags or fusion partners. Residues count along the entry.
UniProt Q4DA54, 1-478: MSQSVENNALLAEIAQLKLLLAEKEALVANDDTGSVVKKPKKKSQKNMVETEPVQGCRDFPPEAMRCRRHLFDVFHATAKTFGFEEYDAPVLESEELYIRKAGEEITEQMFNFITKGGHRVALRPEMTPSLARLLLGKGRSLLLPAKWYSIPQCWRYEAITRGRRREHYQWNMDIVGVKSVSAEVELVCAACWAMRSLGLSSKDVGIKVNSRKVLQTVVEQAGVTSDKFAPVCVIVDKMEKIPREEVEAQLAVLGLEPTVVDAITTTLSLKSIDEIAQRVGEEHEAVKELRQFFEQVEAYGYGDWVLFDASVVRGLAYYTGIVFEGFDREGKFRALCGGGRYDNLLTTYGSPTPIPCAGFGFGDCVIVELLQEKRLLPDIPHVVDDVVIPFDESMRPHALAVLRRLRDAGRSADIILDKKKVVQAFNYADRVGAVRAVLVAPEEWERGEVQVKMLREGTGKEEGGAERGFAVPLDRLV
UniProt P9WNZ1, whole entry: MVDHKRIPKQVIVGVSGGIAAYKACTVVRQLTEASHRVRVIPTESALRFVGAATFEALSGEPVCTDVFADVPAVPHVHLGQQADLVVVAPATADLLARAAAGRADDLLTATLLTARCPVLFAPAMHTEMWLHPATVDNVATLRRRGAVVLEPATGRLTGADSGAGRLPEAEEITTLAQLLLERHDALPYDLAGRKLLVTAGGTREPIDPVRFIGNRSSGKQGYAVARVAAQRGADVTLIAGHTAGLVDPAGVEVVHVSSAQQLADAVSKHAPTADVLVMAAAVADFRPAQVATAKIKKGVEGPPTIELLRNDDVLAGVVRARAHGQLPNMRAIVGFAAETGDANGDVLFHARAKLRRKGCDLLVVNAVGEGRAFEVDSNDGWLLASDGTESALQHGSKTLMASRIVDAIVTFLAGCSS
UniProt A4I591, 1-473: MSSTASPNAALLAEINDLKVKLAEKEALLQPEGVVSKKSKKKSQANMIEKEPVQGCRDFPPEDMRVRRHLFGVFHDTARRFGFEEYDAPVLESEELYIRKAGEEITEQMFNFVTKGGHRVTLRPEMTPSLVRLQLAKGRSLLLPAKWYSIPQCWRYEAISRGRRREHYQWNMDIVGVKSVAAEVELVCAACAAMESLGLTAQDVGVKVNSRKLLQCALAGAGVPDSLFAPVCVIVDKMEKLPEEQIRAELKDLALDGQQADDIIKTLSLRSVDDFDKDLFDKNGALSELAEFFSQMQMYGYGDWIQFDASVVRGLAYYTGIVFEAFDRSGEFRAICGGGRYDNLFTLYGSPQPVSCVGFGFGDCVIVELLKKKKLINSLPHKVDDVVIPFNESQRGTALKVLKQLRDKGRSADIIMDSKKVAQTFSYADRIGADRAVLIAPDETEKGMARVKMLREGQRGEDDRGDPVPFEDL

Source: ChEMBL document CHEMBL3988442, “University of Dundee, Small-Polar-MMV Screening Library” (2021).

TcHisRS: 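Histidine-tRNA ligase, Trypanosoma cruzi CL Brener (UniProt Q4DA54). Enzyme assay of histidyl-tRNA synthetase; the read-out is not stated. Compounds at 30 µM. Higher reads as stronger inhibition (inferred: compounds with an IC50 in retests scored well above the rest). Of about 69,000 compounds tested this way, about 31 (0.045%) reached 50% or more in at least one test.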
CoaBC: 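Coenzyme A biosynthesis protein CoaBC, Mycobacterium tuberculosis (UniProt P9WNZ1). Enzyme assay of CoaBC with a phosphate dye (Biomol Green) read at 650 nm. Tested at 30 µM. Higher reads as stronger inhibition, judged from the few compounds that gave an IC50. Most strong results did not repeat in a second test. Of about 67,000 compounds tested this way, about 40 (0.06%) reached 50% or more in at least one test.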
LiHisRS: 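Histidine-tRNA ligase, Leishmania infantum (UniProt A4I591). Enzyme assay of histidyl-tRNA synthetase; the read-out is not stated. Tested at 30 µM. Higher reads as stronger inhibition (inferred: compounds with an IC50 in retests scored well above the rest). The assay is labelled LdHisRS but filed under L. infantum. About 69,000 compounds were tested under these conditions; 0.6% (about 410) showed 50% or more at least once.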

Results are given as percent effect.
The controls that fix the scale are not given in the record; negative values are as filed.
Compounds were drawn at random from those tested, without regard to their results.
A dash means the value is not listed here; it may have been measured.

structure,TcHisRS,CoaBC,LiHisRS
Cc1cc(CNC(=O)N2CCc3ccccc32)on1,3.784%,17.27%,19.18%
CCCN(C)C(=O)c1cc(S(=O)(=O)NCC)ccc1C,10.84%,1.603%,23.29%
O=C(NCCn1ccnc1)c1cc(Br)c[nH]1,5.195%,-,17.14%
N#Cc1cc(NC(=O)c2cc[nH]n2)ccc1N1CCC(O)CC1,6.897%,0.3205%,-1.37%
Cn1cnnc1C1CCCN(Cc2nc(Cc3ccccc3)no2)C1 (stereo unspecified),0%,5.484%,8.333%
CC(C)CN1CC[C@H]2OCC[C@@H](C(=O)N3CCCO3)[C@@H]2C1,1.22%,0%,5.128%
CC(C)(C(=O)NCc1ccc(C#N)cc1)n1cc(Br)cn1,1.724%,5.697%,16.67%
Oc1ccccc1CN1C[C@H](O)C[C@H]1c1nc(Cc2ccccc2)no1,8.911%,8.804%,19.44%
c1cc2nccc(CC3CCCN(Cc4c[nH]cn4)CC3)c2cn1 (stereo unspecified),16.67%,2.663%,24.74%
O=S(=O)(NCC1COc2ccccc2C1)N1CCCC1 (stereo unspecified),4.933%,3.299%,5.882%
CCCN1CCCC2(CCN(Cc3noc(C4CCCC4)n3)C2)C1=O (stereo unspecified),0%,1.799%,2.083%
COCCN1CCn2c(nc3cc(C(=O)NC(C)C)ccc32)C1,2.959%,-6.842%,9.655%
COc1ccc(C(C)N2CCC(C(=O)NC3CC3)CC2)cc1Cl (stereo unspecified),-2.299%,9.2%,23.08%
CCOCC(=O)N1CCC(C)(c2nccs2)CC1,3.39%,10.17%,-1.399%
CC(C)N(C)Cc1nnc2n1CCN(S(=O)(=O)C1CC1)CC2,8.602%,4.863%,14.04%
CCc1nc(CN2CCOC(Cn3cncn3)C2)no1 (stereo unspecified),5.263%,1.531%,12.73%
Cc1c(-c2ccccc2)ncn1CCCNc1cccnc1,3.185%,-,26.76%
Cc1ccc(NS(=O)(=O)c2cc3c(c(C(=O)O)c2)OCCO3)c(F)c1,-0.7576%,12.52%,34.85%
CCOC(=O)c1cccc(N2CCCC3(CCC(=O)N(C4CC4)C3)C2)n1 (stereo unspecified),10%,5.124%,24.49%
CCOC(=O)N1CCN(C(=O)c2sc(-c3ccncc3)nc2C)CC1,0%,1.533%,-5.195%
Clc1cc(CN2CCCCC2Cn2cncn2)c2ncccc2c1 (stereo unspecified),16.03%,2.117%,38.53%
COc1ncccc1CNC(=O)NCc1ccco1,8.475%,0.5222%,18.97%
Cn1ccc(NC2CCN(C3CC3)C2=O)n1 (stereo unspecified),5.946%,-4.701%,1.709%
COc1cccc2c1OCC(Cc1cc(C(=O)N3CCCC3)ccn1)C2 (stereo unspecified),7.463%,10.16%,20.48%
Cc1ccc(C)c(OC2CCN(C(=O)c3ccc(C)[nH]c3=O)CC2)c1,-4.943%,-0.5319%,20%
COc1ccc(F)cc1C(=O)N1CCCC(n2nc(C)nc2C)C1 (stereo unspecified),2.521%,-2.376%,13.22%
Cc1ccnc(C2(C)CCCN2C(=O)c2cnccn2)n1 (stereo unspecified),5.993%,2.107%,10%
CCc1csc(C2CCCN(C(=O)c3ccncc3)C2)n1 (stereo unspecified),4.167%,4.842%,3.774%
CCCC(C#N)NC(=O)Cc1csc(CC)n1 (stereo unspecified),7.843%,2.764%,15.97%
c1cc2occc2c(N2CCCC(c3nncn3C3CC3)C2)n1 (stereo unspecified),3.867%,3.398%,2.41%
Cc1nsc(N2CCN(C(=O)Nc3ccc4[nH]ccc4c3)CC2)n1,15.08%,4.435%,2.632%
Cc1ccc(CN2CCOC3(COCCN(S(C)(=O)=O)C3)C2)o1 (stereo unspecified),3.483%,13.95%,21.62%
Cn1c(N)nnc1SCc1cc(Br)ccc1Cl,10.34%,-2.091%,14.52%
Cc1ccc(N2CC[C@@H](NC(=O)c3cnccn3)[C@H](O)C2)nn1,3.061%,11.51%,25%
CCC1COCCN1C(=O)CNC(=O)c1ccsc1 (stereo unspecified),4.902%,1.914%,13.33%
CN(CCn1cccn1)c1cc(C(F)(F)F)nc(-c2cccnc2)n1,10.34%,0.1965%,7.895%
O=C(NCCNc1ncccn1)C1CCN(C(=O)C2CC2)CC1,0.3831%,3.373%,9.231%
CN(Cc1nc(-c2ccccc2)c[nH]1)C(=O)NCC(=O)NC(C)(C)C,5.263%,-,4.167%
O=C(C1CCS(=O)(=O)CC1)N1CCC(Cc2ccc(F)cc2)CC1,6.145%,-6.048%,0%
CC(C)c1cc(C(=O)N2CCC3(CCc4ccccc4C(=O)N3)C2)no1 (stereo unspecified),-1.149%,-2.153%,2.878%
COc1c(CNC2CCCOc3ccccc32)c(C)nn1C (stereo unspecified),0%,-5.286%,22.64%
Cc1nc(CC(=O)N2CCCC[C@H](N(C)C)C2)cs1,13.07%,2.265%,17.65%
Cc1cc(C)n2nc(C(=O)N[C@H]3C[C@H]4CN(C)CCN4C3)cc2n1,1.01%,2.558%,11.48%
CC(C)N1CCOCC2(CCCN(C(=O)CCc3cccnc3)C2)C1 (stereo unspecified),4%,11.68%,7.965%
COc1ccccc1OC1(C(=O)O)CCN(c2ncccc2F)CC1,1.961%,-3.902%,22.4%
Cc1nn(C)c(N(C)C)c1CNCc1ccc(Cn2cccn2)cc1,1.163%,1.288%,9.836%
OC1(CN2CCCCC2)CCN(c2nccc(C(F)(F)F)n2)C1 (stereo unspecified),5.473%,0.4938%,11.19%
Cc1nc(C)n(CC2CCCCN2Cc2cnc(C)s2)n1 (stereo unspecified),7.471%,8.129%,10.43%
COc1cc(CCC(=O)NC2CC2)ccc1OCC(F)(F)F,-2.273%,10.85%,13.64%
COc1ccnc(N2CCN(C(=O)Cc3ccc(C#N)cc3)CC2)n1,3.396%,-1.282%,21.33%
CC(C)n1c2ccccc2c2c1cc(C(=O)NCCO)n2C(=O)N(C)C,6.349%,2.963%,17.27%
Cc1[nH]c2ccccc2c1CCNC(=O)N1CCC2(C1)OCCO2,6.358%,4.545%,-1.333%
CC(NC(=O)N(C)Cc1ccc(Cl)s1)c1ccccn1 (stereo unspecified),-3.383%,7.833%,18.92%
C[C@H]1CN(C)C[C@@]12COCCN(C(=O)Cc1ccccc1)C2,8.458%,-1.613%,30.56%
Cc1ccnc(C2(C)CCCN2S(=O)(=O)c2ccccc2)n1 (stereo unspecified),4.52%,-8.475%,8.392%
COc1ccc(Cl)cc1-n1nc(C2CCCC2)nc1Cn1cnnn1,8.333%,0.6143%,12.4%
CC(=O)Nc1ncc(S(=O)(=O)N2CCOCC2)s1,7.407%,-8.108%,10.75%
CCN(CC)S(=O)(=O)N1CCCC(c2nccn2Cc2ccncc2)C1 (stereo unspecified),-14.67%,2.066%,-13.33%
CNC(=O)[C@@H]1C[C@@H](N)CN1C1CCN(Cc2ccccn2)CC1,-6.18%,-8.652%,2.564%
CN(CCCNC(=O)c1ccccc1F)CC(F)(F)F,2.703%,-7.273%,10.96%
Cc1csc(CCNC(=O)NC(C)Cn2cccn2)n1 (stereo unspecified),0.5848%,9.694%,-21.82%
Cc1nc(C2CCCN2C(=O)c2ccc(F)cc2)ncc1C(N)=O (stereo unspecified),4.494%,4.585%,14%
COc1ccc(CCC(=O)N2CCNCC2C(=O)N2CCOCC2)cc1 (stereo unspecified),7.463%,0.9877%,-2.797%
CC(C)COCc1cncc2c1CCN(Cc1cnn(C)c1)C2,4.184%,-14.55%,17.92%
Cc1ccccc1CC(=O)N1CCOCC1c1c(C)n[nH]c1C (stereo unspecified),3.226%,3.947%,8.333%
Cc1ccc(OCCC(=O)NC2CC(=O)N(C)C2)cc1C (stereo unspecified),3.185%,-,12.68%
Clc1ccccc1OC1CN(CC2CCOC2)C1 (stereo unspecified),9.877%,-1.72%,4.301%
Cn1cc(C(=O)N2CC[C@@]3(O)CCN(C(=O)C4CCCC4)C[C@H]3C2)cn1,3.261%,-4.673%,19.74%

7 of the entries, repeated:

{"structure": "Cn1cc(C(=O)N2CC[C@@]3(O)CCN(C(=O)C4CCCC4)C[C@H]3C2)cn1", "TcHisRS": 3.261, "CoaBC": -4.673, "LiHisRS": 19.74}
{"structure": "OC1(CN2CCCCC2)CCN(c2nccc(C(F)(F)F)n2)C1", "stereo": "stereo unspecified", "TcHisRS": 5.473, "CoaBC": 0.4938, "LiHisRS": 11.19}
{"structure": "O=C(NCCNc1ncccn1)C1CCN(C(=O)C2CC2)CC1", "TcHisRS": 0.3831, "CoaBC": 3.373, "LiHisRS": 9.231}
{"structure": "CCCC(C#N)NC(=O)Cc1csc(CC)n1", "stereo": "stereo unspecified", "TcHisRS": 7.843, "CoaBC": 2.764, "LiHisRS": 15.97}
{"structure": "CNC(=O)[C@@H]1C[C@@H](N)CN1C1CCN(Cc2ccccn2)CC1", "TcHisRS": -6.18, "CoaBC": -8.652, "LiHisRS": 2.564}
{"structure": "Cc1cc(CNC(=O)N2CCc3ccccc32)on1", "TcHisRS": 3.784, "CoaBC": 17.27, "LiHisRS": 19.18}
{"structure": "Cc1ccnc(C2(C)CCCN2S(=O)(=O)c2ccccc2)n1", "stereo": "stereo unspecified", "TcHisRS": 4.52, "CoaBC": -8.475, "LiHisRS": 8.392}